# Source: the supplement of paper PMC10849652
# Protein sequences, listed by entry. Tags and fused reporters are not part of them. Lines headed by an entry give the natural chain unless they say otherwise; changes in a name come on top.
# UniProt Q8IYA6: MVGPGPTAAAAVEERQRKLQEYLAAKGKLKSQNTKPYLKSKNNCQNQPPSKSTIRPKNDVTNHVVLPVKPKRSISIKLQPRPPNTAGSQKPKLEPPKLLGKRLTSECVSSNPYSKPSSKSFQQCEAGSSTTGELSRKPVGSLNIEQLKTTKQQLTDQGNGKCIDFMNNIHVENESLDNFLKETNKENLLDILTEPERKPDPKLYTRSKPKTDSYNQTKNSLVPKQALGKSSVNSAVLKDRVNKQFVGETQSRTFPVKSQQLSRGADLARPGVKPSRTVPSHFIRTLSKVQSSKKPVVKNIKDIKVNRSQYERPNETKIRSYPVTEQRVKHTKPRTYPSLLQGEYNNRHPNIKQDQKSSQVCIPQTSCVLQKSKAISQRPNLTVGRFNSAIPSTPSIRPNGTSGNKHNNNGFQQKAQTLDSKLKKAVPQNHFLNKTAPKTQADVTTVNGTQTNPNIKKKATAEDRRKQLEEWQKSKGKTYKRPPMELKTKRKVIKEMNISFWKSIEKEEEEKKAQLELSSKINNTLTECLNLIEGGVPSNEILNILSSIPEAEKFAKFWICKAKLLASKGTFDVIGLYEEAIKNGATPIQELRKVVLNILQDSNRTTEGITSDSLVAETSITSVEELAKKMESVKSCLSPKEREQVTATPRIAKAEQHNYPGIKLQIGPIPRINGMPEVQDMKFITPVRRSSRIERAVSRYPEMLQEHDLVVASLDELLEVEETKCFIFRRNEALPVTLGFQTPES
# UniProt O43529: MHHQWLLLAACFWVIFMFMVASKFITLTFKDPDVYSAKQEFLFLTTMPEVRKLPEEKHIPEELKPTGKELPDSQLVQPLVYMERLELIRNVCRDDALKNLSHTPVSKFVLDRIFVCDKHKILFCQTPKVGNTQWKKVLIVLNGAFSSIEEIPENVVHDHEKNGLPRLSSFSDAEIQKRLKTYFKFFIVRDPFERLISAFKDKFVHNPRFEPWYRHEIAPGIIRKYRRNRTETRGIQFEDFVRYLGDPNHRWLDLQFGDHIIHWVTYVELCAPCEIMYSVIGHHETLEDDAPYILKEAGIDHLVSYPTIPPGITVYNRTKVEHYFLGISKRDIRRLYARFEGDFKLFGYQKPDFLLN
# UniProt Q8WUD6: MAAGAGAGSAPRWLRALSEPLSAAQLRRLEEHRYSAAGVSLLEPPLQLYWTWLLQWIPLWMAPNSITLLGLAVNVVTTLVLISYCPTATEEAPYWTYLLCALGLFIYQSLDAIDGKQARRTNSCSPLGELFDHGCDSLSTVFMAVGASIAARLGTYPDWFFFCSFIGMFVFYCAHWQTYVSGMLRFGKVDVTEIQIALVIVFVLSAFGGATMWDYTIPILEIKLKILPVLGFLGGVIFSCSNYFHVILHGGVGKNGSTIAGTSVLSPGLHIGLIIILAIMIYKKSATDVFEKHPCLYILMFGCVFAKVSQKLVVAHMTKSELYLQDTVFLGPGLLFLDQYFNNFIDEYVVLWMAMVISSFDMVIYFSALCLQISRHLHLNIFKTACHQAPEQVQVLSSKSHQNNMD
# UniProt Q96AJ1: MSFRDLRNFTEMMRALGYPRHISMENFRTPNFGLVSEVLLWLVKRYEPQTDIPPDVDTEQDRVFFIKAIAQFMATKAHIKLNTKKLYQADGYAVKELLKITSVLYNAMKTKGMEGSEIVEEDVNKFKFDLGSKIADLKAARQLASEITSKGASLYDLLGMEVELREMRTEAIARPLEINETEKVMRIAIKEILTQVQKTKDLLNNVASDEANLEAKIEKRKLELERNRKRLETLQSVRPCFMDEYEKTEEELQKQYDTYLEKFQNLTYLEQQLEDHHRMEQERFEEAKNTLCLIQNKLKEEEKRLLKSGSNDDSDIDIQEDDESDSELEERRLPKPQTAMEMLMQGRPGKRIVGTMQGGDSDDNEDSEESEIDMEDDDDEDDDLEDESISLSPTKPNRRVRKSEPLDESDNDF
# UniProt Q9UBR5: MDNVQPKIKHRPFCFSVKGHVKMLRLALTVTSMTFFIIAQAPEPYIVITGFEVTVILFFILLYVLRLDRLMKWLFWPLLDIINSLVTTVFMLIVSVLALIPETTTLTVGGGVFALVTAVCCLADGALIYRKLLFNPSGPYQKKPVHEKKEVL
# UniProt Q8NCH0: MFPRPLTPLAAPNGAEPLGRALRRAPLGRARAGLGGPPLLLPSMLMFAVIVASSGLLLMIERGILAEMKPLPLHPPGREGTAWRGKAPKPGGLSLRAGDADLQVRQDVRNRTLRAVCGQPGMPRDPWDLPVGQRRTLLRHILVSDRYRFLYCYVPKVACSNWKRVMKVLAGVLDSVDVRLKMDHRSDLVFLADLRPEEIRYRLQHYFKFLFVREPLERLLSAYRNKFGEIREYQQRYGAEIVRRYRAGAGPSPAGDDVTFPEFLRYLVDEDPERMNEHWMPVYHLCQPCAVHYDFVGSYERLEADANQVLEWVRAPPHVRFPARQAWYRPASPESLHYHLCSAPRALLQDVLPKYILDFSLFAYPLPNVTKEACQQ
# UniProt P49759: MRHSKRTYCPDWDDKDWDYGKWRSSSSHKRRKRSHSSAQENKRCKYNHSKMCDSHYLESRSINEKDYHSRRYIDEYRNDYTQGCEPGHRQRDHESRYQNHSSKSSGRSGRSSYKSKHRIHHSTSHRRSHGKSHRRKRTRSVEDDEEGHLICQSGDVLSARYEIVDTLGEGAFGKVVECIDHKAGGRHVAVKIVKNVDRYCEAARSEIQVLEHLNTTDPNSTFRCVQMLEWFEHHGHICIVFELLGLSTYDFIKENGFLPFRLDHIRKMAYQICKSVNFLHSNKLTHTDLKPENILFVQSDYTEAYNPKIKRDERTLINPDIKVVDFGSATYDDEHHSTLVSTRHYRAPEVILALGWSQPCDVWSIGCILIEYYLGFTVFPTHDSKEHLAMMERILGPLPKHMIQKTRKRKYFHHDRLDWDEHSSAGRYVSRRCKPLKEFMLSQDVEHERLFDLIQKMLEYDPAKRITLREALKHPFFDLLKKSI
# UniProt Q9NX76: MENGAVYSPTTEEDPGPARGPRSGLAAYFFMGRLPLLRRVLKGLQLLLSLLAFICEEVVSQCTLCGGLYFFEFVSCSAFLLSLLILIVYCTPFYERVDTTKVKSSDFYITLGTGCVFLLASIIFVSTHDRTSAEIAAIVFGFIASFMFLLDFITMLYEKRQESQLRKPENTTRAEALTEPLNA
# UniProt P10909, whole entry, looked up: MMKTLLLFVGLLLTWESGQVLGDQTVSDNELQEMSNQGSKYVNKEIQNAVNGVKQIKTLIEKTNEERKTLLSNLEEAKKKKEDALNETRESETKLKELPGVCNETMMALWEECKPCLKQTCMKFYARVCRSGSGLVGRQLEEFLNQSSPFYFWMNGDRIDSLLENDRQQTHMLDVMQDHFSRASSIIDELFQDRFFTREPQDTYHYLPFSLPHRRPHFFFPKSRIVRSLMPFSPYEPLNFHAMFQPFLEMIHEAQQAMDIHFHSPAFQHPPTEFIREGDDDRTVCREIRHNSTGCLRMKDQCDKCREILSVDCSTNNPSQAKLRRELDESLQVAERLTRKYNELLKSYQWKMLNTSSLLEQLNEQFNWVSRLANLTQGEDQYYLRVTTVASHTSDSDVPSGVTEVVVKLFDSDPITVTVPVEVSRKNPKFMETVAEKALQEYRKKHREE
# UniProt Q8IZR5: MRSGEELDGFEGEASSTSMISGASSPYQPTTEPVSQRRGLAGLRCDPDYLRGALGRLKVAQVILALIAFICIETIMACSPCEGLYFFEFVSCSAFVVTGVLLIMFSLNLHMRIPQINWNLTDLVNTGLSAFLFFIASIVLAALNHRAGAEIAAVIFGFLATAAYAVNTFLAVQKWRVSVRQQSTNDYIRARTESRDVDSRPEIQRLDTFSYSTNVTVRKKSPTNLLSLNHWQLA
# UniProt Q9Y4C5: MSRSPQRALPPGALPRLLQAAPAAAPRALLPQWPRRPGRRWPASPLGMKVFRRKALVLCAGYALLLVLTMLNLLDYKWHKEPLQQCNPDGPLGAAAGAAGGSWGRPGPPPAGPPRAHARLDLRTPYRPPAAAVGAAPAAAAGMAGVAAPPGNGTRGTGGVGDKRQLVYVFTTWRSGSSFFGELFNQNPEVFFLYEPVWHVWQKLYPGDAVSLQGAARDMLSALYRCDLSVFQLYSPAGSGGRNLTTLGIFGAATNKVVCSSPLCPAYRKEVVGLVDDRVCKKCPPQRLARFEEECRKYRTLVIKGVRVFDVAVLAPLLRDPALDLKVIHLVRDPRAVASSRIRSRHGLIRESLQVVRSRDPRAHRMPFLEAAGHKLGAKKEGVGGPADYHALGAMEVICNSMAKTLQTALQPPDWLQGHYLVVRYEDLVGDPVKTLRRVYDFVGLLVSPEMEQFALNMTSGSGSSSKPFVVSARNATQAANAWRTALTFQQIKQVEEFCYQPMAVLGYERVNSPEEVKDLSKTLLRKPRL
# UniProt Q9UBY8, whole entry, looked up: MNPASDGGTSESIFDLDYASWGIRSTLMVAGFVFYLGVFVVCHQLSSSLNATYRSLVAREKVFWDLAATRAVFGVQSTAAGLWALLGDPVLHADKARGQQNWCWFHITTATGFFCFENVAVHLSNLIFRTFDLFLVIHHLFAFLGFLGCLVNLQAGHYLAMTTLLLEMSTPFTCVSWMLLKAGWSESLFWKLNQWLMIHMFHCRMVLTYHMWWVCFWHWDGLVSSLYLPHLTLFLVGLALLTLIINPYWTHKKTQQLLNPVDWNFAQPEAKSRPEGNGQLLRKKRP
# UniProt Q5VXU3: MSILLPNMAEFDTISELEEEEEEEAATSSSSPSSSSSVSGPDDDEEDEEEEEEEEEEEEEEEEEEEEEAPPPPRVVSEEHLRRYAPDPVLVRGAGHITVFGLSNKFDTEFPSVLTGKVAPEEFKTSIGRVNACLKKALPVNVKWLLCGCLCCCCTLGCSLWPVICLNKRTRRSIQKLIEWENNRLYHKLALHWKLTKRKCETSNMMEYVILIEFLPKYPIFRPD
# UniProt P0C7P0: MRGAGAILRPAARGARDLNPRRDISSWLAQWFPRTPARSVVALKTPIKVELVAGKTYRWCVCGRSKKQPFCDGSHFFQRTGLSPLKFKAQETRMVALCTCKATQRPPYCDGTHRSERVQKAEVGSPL
# UniProt P56749: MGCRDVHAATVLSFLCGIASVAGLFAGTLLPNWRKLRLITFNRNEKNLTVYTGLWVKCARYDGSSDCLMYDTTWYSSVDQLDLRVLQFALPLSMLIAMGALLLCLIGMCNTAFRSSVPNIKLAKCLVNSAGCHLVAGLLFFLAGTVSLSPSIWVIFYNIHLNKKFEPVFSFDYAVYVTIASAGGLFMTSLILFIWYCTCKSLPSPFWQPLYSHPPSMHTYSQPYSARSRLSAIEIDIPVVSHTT
# UniProt Q9BSY4: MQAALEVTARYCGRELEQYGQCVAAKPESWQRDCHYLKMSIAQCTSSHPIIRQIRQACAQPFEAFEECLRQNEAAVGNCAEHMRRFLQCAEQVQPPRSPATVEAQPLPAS
# UniProt O94985: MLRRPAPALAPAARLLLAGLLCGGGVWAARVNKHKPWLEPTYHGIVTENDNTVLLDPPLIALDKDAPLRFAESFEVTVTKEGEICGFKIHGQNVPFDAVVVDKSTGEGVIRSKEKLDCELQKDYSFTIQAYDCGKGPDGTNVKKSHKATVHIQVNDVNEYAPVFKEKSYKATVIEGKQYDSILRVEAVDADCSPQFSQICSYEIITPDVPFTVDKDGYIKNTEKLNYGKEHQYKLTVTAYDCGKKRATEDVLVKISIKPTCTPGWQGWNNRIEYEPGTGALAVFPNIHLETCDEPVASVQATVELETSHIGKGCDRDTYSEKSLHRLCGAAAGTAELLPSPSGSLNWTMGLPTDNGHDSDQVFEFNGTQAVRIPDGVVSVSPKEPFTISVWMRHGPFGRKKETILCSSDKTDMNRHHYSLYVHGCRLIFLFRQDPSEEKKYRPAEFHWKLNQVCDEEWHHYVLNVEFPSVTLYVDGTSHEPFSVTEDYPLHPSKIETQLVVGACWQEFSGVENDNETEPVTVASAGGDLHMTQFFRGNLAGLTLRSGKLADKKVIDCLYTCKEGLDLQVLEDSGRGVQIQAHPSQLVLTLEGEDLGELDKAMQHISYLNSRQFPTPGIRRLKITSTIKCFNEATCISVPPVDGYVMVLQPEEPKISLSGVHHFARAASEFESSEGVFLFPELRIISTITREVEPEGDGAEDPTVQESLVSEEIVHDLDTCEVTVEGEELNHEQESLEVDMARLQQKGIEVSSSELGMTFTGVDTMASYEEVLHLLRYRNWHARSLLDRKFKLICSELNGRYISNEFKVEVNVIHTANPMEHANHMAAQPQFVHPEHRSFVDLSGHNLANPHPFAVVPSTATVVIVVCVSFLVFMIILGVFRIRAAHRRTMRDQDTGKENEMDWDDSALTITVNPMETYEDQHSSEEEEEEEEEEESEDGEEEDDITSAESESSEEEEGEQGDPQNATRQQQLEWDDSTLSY
# UniProt P33552, whole entry, looked up: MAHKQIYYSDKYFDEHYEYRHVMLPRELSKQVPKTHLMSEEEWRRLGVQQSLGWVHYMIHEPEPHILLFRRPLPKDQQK
# The other results are listed elsewhere or left out.
# Compound: c1ccc([C@@H]2C[C@H]2NC2CCNCC2)cc1
# Assay: log2 fold change, soluble protein after heating vs DMSO (PISA); higher = thermal stabilisation; K562 lysate, 10 uM; active = over 0.2 and 3.5 SD of the protein, either way, in both replicates (recomputed)
# In short: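 Log-two fold change in thermal stability relative to solvent controls is reported from duplicates. For each sample, crude K562 extract from dounce-homogenised pellets in PBS pH 7.4 with 1 mM MgCl2, at 1 mg/mL protein, was treated with 10 μM compound for 30 min. Aliquots heated for 3 min across 48°C-58°C were pooled, brought to 0.5% NP-40 at 4°C and cleared at 21,000xg for 90 min. The supernatant was quantified by TMTpro 16plex LC-MS/MS with channel sums equalised.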
row,Target,log2 fold change
1,CKAP2L (UniProt Q8IYA6),inactive: -0.102
2,CHST10 (UniProt O43529),inactive: 0.045
3,CHURC1-FNTB (UniProt B4DL54),inactive: -0.133
4,CHD9 (UniProt Q3L8U1),inactive: 0.232
5,CHPT1 (UniProt Q8WUD6),inactive: 0.089
6,CLUAP1 (UniProt Q96AJ1),inactive: 0.243
7,CKLF (UniProt Q9UBR5),inactive: -0.008
8,CHST14 (UniProt Q8NCH0),inactive: -0.006
9,"CLIP1, A0A3B3ITA2",inactive: -0.123
10,CLK1 isoform 3 (UniProt P49759),inactive: -0.257
11,CMTM6 (UniProt Q9NX76),inactive: -0.066
12,CLU isoform 2 (UniProt P10909),inactive: -0.086
13,CMTM4 (UniProt Q8IZR5),inactive: -0.035
14,CHMP2A (UniProt M0R1T5),inactive: 0.069
15,CHST2 (UniProt Q9Y4C5),inactive: 0
16,CLN8 (UniProt Q9UBY8),inactive: -0.073
17,CHIC1 (UniProt Q5VXU3),inactive: 0.042
18,CISD3 (UniProt P0C7P0),inactive: 0.047
19,CLDN12 (UniProt P56749),inactive: 0.036
20,CHCHD5 (UniProt Q9BSY4),inactive: 0.204
21,CLSTN1 (UniProt O94985),inactive: -0.297
22,CKS2 (UniProt P33552),inactive: 0.065

# Some values from the list.
# Entry of CHST10 (UniProt O43529) under log2 fold change: inactive: 0.045
# Entry of CHCHD5 (UniProt Q9BSY4) under log2 fold change: inactive: 0.204
